Measured values published in US20170145112A1 (Genentech, published 2017).
Numbering of substitutions follows the chain as printed. Names may count otherwise. No constants are given. Whether binding was seen depends on the method and setting. Some results given as binding are weak or reduced against the parent protein; the word gives no strength. Each block holds one binder with its values, some of them ahead of it.

By UniProt entry, the sequences of proteins in these tests, tags left out. Where a name states a change or a piece, a line headed by the entry shows the natural chain unless it says otherwise.
UniProt P00746: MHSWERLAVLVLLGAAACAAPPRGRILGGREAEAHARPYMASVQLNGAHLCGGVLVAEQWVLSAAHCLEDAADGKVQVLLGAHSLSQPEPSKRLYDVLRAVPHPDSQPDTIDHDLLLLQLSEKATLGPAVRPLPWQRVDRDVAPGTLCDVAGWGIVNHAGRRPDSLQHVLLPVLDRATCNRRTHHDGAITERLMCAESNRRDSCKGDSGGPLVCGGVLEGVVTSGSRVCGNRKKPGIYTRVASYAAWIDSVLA

How the values were obtained:
[1] = molecular target: Human complement Factor D, mature (human) (UniProt P00746); test: SPR, Fab captured by anti-huFab
[2] = molecular target: Human complement Factor D, mature (human) (UniProt P00746); test: Biacore after sustained delivery stress, 37 C, 4 weeks
[3] = molecular target: Human complement Factor D, mature (human) (UniProt P00746); test: 1:1 complex purified on Superdex 200 and crystallised, 2.9 A data set
[4] = molecular target: Human complement Factor D, mature (human, UniProt P00746 27-253); test: SPR, IgG format
[5] = molecular target: Human complement Factor D, mature (human) (UniProt P00746); test: SPR, Fab captured by anti-huFab, human Factor D injected
[6] = molecular target: Human complement Factor D, mature (human) (UniProt P00746); test: antigen binding after sustained delivery stress, 37 C, 4 weeks

binding [5]: binds
B4: hu20D12.v2.14 Fab (Fab, V domains shown)
VH: EVQLVQSGAEVKKPGASVKVSCKASGYTFTSYYMYWVRQAPGQGLEWIGEINPTSGETNFNEKFKSRATLTVDTSTSTAYLELSSLRSEDTAVYYCAREGGFAYWGQGTLVTVSS
VL: DIQMTQSPSSLSASVGDRVTITCKASQNVDTDVAWFQQKPGKAPKGLIRSASSRYSGVPSRFSGSGSGTDFTLTISSLQPEDFATYYCQQYNNYPLTFGQGTKVEIKR

binding [5]: binds
B5: hu20D12.v2.13 Fab (Fab, V domains shown)
VH: B4 VH with E57G
VL: B4 VL with N92E

binding [5]: binds
B7: hu20D12.v2.10 Fab (Fab, V domains shown)
VH: B4 VH with E57G
VL: B4 VL with R49Y, Y55K

binding [5]: binds
B11: hu20D12.v2.12 Fab (Fab, V domains shown)
VH: B4 VH with T54Y, E57G
VL: B4 VL

binding [5]: binds
B13: hu20D12.v2.15 Fab (Fab, V domains shown)
VH: B4 VH with T54Y
VL: B4 VL

binding [5]: binds
B14: hu20D12.v2.11 Fab (Fab, V domains shown)
VH: B4 VH with E57G
VL: B4 VL with R49Y, Y55R

The next lines start with the binder.

B1: hu20D12.v2.0 Fab (Fab, V domains shown)
VH: B4 VH with E57G
VL: B4 VL with R49Y
notes: Fab expressed in E. coli; also called Hu20D12.v1.N54S; hu20D12.v1.N54S
binding [1]: binds
binding [2]: binds
binding [3]: binds

B2: hu20D12.v1 IgG (antibody, V domains shown)
VH: B4 VH with S55N, E57G
VL: DIQMTQSPSSLSASVGDRVTITCKASQNVDTDVAWFQQKPGKAPKGLIYSASSRYSGVPSRFSGSGSGTDFTLTISSLQPEDFATYYCQQYNNYPLTFGQGTKVEIK
notes: Expressed as full length IgG in CHO cells
binding [4]: binds

B3: hu20D12.v2.9 Fab (Fab, V domains shown)
VH: B4 VH with E50W, E57G
VL: B4 VL with R49Y
binding [5]: binds

B6: hu20D12.v2.1 Fab (Fab, V domains shown)
VH: B4 VH with E57G
VL: B4 VL
binding [6]: binds

B8: hu20D12.v2.8 Fab (Fab, V domains shown)
VH: B4 VH with E57G
VL: B4 VL with R49Q
binding [5]: binds

B9: hu20D12.v2.7 Fab (Fab, V domains shown)
VH: B4 VH with E57G
VL: B4 VL with R49K
binding [5]: binds

B10: hu20D12.v2.2 Fab (Fab, V domains shown)
VH: B4 VH with E57D
VL: B4 VL with R49Y
binding [5]: binds

B12: hu20D12.v2.4 Fab (Fab, V domains shown)
VH: B4 VH
VL: B4 VL with R49Y
binding [5]: binds

B15: hu20D12.v2.6 Fab (Fab, V domains shown)
VH: B4 VH with E57G
VL: B4 VL with R49S
binding [5]: binds

B16: hu20D12.v2.3 Fab (Fab, V domains shown)
VH: B4 VH with T54Y, E57D
VL: B4 VL
binding [5]: binds

B17: hu20D12.v2.5 Fab (Fab, V domains shown)
VH: B4 VH with T54Y, E57G
VL: B4 VL with R49Y
binding [5]: binds
